# Measurements reported in PubChem BioAssay AID1259354 (Paczesny and Yang Labs, IUPUI and University of Michigan, 2018).
# By UniProt entry, the sequences of proteins in these tests, tags left out. Where a name states a change or a piece, a line headed by the entry shows the natural chain unless it says otherwise.
# UniProt Q01638: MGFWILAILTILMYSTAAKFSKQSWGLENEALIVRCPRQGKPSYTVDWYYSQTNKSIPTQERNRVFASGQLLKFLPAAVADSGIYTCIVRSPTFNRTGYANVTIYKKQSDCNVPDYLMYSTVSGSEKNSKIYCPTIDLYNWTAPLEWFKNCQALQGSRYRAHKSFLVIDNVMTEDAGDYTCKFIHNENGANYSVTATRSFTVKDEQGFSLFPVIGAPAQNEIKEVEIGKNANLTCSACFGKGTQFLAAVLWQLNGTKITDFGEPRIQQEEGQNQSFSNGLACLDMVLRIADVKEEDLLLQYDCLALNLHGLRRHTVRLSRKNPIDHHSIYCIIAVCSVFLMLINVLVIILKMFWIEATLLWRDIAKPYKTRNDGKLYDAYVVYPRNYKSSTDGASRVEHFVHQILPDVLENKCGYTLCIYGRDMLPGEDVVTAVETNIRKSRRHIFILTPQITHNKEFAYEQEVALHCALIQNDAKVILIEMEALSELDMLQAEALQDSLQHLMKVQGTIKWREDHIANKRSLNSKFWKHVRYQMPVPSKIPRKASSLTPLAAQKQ
# Hit rate of the full screen: of about 78,000 compounds, about 1,800 (2.3%) were called active. This list was built around the results that the source calls inconclusive (neither active nor inactive); the mix of calls is not that of the screen. Cut-off read from the data, not from the text of the source: active = inhibition above about 30%; inconclusive = mostly about 10% to 28%; inactive = weaker than that. Non-standard residues stand in square brackets, D forms with d. Residues, ends and D or L forms follow the SMILES beside them. ξ: configuration not given here. ξPhe(βξ-Me) = CC(c1ccccc1)C(N)C(=O)O; GABA = NCCCC(=O)O
# Target: Interleukin-1 receptor-like 1 (Homo sapiens) (UniProt Q01638)
# Assay: blocks human ST2 binding to IL-33, primary screen, biochemical, AlphaLISA (AID 1259354)
# Details: AlphaLISA ST2-Fc/biotin-IL-33 interaction, 1 h; at 17 µM, active compounds read high
row,Structure (SMILES),inhibition
1,COc1ccc(C)cc1NC(=O)CN(c1ccc([N+](=O)[O-])cc1)S(=O)(=O)c1ccccc1,inconclusive: 13%
2,CN1CCCN(Cc2coc3c(Cl)cc(Cl)cc3c2=O)CC1,inactive
3,COc1ccccc1NC(=O)c1ccccc1Sc1ccc([N+](=O)[O-])cc1,inconclusive: 12%
4,Cc1sc2ncn(CC(=O)NCCCC(=O)O)c(=O)c2c1C,inactive
5,O=C(c1ccccc1Cl)N(c1ccc(F)cc1)C1C=CS(=O)(=O)C1 (configuration not stated),inactive
6,CCC(C)(C)C1CCc2c(sc(NC(=O)c3cc(OC)c(OC)c(OC)c3)c2C(N)=O)C1 (configuration not stated),inactive
7,COCCCNc1nc2c(c(=O)n(Cc3ccc(F)cc3)c(=O)n2C)n1C,inconclusive: 27%
8,COc1ccc(-n2ccnc2CN2CCC(CNC(C)=O)C2)cc1 (configuration not stated),inactive
9,COc1ccc(-n2nc(C#N)c(N)c(C#N)c2=N)cc1,inconclusive: 20%
10,O=C(O)c1cc(N2C(=O)C3CC=CCC3C2=O)ccc1Cl (configuration not stated),inactive
11,Cc1cc(C)cc(NC2=N[C@H]3[C@@H](O)[C@H](O)C[C@H](C(=O)NCCN4CCCCC4)[C@H]3S2)c1,inconclusive: 22%
12,O=C(Nc1cc(F)ccc1F)C(NS(=O)(=O)c1cccs1)c1ccccc1 (configuration not stated),inactive
13,Cc1nc2ncccn2c1C(=O)N1C[C@@H]2C[C@H](C1)[C@@H]1CCCC(=O)N1C2,inconclusive: 16%
14,Cc1nc(C(=O)NCC2(c3ccc(F)cc3)CCOC2)cs1 (configuration not stated),inconclusive: 13%
15,COc1cc(/C=C2/C(=O)N(c3ccc(Br)cc3)N=C2C)cc(OC)c1OC,inconclusive: 13%
16,O=C1CC(N2CCN(Cc3ccc(Cl)cc3)CC2)C(=O)N1c1cccc(Cl)c1 (configuration not stated),inactive
17,Cc1ccc(NC(=O)NCCc2nc3cccnc3n2-c2ccccc2)cc1,inconclusive: 21%
18,O=C1C(SCCO)=C(SCCO)C(=O)c2ccccc21,inconclusive: 13%
19,COc1ccc(NC(=O)CSc2nnc(Cc3cc(=O)[nH]c(=O)[nH]3)n2-c2ccccc2)cc1,inconclusive: 21%

# Five compounds already listed, ordered by number of heavy atoms, smallest number first:
row,Structure (SMILES),inhibition
14,Cc1nc(C(=O)NCC2(c3ccc(F)cc3)CCOC2)cs1 (configuration not stated),inconclusive: 13%
8,COc1ccc(-n2ccnc2CN2CCC(CNC(C)=O)C2)cc1 (configuration not stated),inactive
13,Cc1nc2ncccn2c1C(=O)N1C[C@@H]2C[C@H](C1)[C@@H]1CCCC(=O)N1C2,inconclusive: 16%
12,O=C(Nc1cc(F)ccc1F)C(NS(=O)(=O)c1cccs1)c1ccccc1 (configuration not stated),inactive
11,Cc1cc(C)cc(NC2=N[C@H]3[C@@H](O)[C@H](O)C[C@H](C(=O)NCCN4CCCCC4)[C@H]3S2)c1,inconclusive: 22%

# Next records follow.

row,Structure (SMILES),inhibition
1,C=CCc1ccccc1OCC(O)CN1CCN(Cc2ccc3c(c2)OCO3)CC1 (configuration not stated),inconclusive: 18%
2,CCN(CC)C(=O)C1CCCN(Cc2ccc(F)cc2F)C1 (configuration not stated),inconclusive: 20%
3,CN(c1ccccc1)S(=O)(=O)c1ccc(C(=O)Nc2nc(-c3ccccn3)cs2)cc1,inactive
4,Cn1cncc1[C@@H]1C[C@H](NC(=O)c2ccccc2)C[C@H](C2CCCCC2)O1,inconclusive: 18%
5,Cc1ccccc1C1=N/C(=C\c2ccco2)C(=O)O1,active: 44%
6,CCOC(=O)c1c(NC(=O)c2ccc(OC(C)C)cc2)sc2c1CCC2,inconclusive: 10%
7,Cc1ccc(S(=O)(=O)N2CCc3ccccc32)cc1[N+](=O)[O-],active: 36%
8,O=C1C2CC=CCC2C(=O)N1c1ccc(Cl)c(F)c1 (configuration not stated),inconclusive: 14%
9,CCOc1ccc(N2CC(NC(=O)C(C)(C)C)CC2=O)cc1 (configuration not stated),inconclusive: 13%
10,CCCSCCCNc1nc(-c2nnc(-c3cccc(C)c3)o2)nc2ccccc12,inactive
11,COc1ccc(NC(=O)N2Cc3[nH]cnc3C[C@H]2c2nc(-c3ccc(C(F)(F)F)cc3)no2)cc1,inconclusive: 12%
12,CCC(C)c1ccc(OCCCCN2CCN(C)CC2)cc1 (configuration not stated),active: 39%
13,CCC1C(=O)C(C)(C)C(=O)OC1c1ccc(Cl)cc1Cl (configuration not stated),inconclusive: 14%
14,COc1cc(C(=O)Nc2c3c(nn2-c2ccc(Cl)cc2)CSC3)cc(OC)c1OC,inconclusive: 14%
15,Cc1ccc(CNC(=O)c2ccc(N3C(=O)NC4CC3(C)Oc3ccccc34)cc2)cc1 (configuration not stated),inactive
16,C=CCOc1ccc(C(Nc2ccccn2)c2ccc3cccnc3c2O)cc1 (configuration not stated),inconclusive: 12%
17,COc1ccc(C2CC(=O)C3=C(C2)Nc2ccccc2NC3c2ccc(C)s2)cc1 (configuration not stated),active: 30%
18,COc1cc2c(C(=O)NCc3ccco3)cn(C)c(=O)c2cc1OC,inactive
19,Cc1ccsc1CN(C)C(=O)c1n[nH]c2ccccc12,inconclusive: 12%

row,Structure (SMILES),inhibition
1,Cc1cccc(C)c1NC(=O)COc1ccccc1,inconclusive: 10%
2,O=[N+]([O-])c1cc(Cc2ccccc2)ccc1O,active: 36%
3,COc1cc(C2Nc3ccccc3NC3=C2C(=O)CC(C)(C)C3)cc([N+](=O)[O-])c1O (configuration not stated),inactive
4,COc1ccccc1CN1C(=O)C2CCCCC2C1=O (configuration not stated),inconclusive: 14%
5,CC(C)NC(=O)Cc1c(C(=O)O)[nH]c2ccc(Cl)cc12,inactive
6,O=C(c1cccc(Cl)c1)N1CCN(S(=O)(=O)c2cc3c4c(c2)CCN4C(=O)CC3)CC1,inconclusive: 14%
7,O=C(Nc1ccc(Cl)cc1Cl)C1CCCCC1,inactive
8,O=C(NCc1ccccc1)[C@@H]1Cc2nc[nH]c2CN1Cc1cc2ccccc2o1,inconclusive: 14%
9,Cc1csc(=Nc2ccccc2)n1CC(=O)c1ccc(Cl)cc1,active: 36%
10,Cc1cc(C)c(S(=O)(=O)NCCn2c(CCc3ccccc3)nc3cccnc32)cc1C,inconclusive: 10%
11,Nc1ncc(C(=O)N2CCCC(N)CC2)c(-c2ccccc2)n1 (configuration not stated),inconclusive: 12%
12,O[C@@H]1CN(c2ccnc3ccccc23)CC[C@H]1N1CCN(c2ccccn2)CC1,inconclusive: 12%
13,Cn1c(=O)c2c(nc3n(Cc4ccco4)c(-c4ccc(F)cc4)cn23)n(C)c1=O,inconclusive: 12%
14,CC1NC(=O)CCCNC(=O)C(Cc2c[nH]c3ccccc23)NC(=O)C(C)NC(=O)C(C(C)C)NC(=O)C(C(C)c2ccccc2)NC(=O)C(C(C)C)NC1=O (stereo not drawn) (cyclo([GABA]AV[ξPhe(βξ-Me)]VAW); configuration not given here),inconclusive: 11%
15,Cc1cccn2c(CC(=O)N(Cc3cnn(C)c3)C3CC3)cnc12,inactive
16,Cc1ccc(Nc2c3c4c(cccc4n(C)c2=O)C(=O)c2ccccc2-3)cc1,inconclusive: 26%
17,CC1CCCN(c2nc3c(c(=O)n(C)c(=O)n3C)n2CCSc2ncccn2)C1 (configuration not stated),inconclusive: 16%
18,CCc1ccc(OCCN(C)C(=O)c2ccc(C(C)=O)s2)cc1,inconclusive: 22%
19,CCOC(=O)c1[nH]c(C(=O)O)c(CCC(=O)OC)c1C,inconclusive: 11%
